Test results from patent US20180141987A1, “Novel Synthetic Antimicrobial Peptides” (priority 2014, published 2018).
Part of at least one peptide drawing is inferred or uncertain, most often the ends. No end group written: not given here.

System: Yeast-Hypha transition
Assay: Yeast-Hypha transition inhibition
Type: cell-based
Details: at 4 μg/ml; Table 10 has no title
Method: ii. Yeast-Hypha Transition Inhibition. • The peptides were also tested for the Yeast-Hypha transition inhibition. In many human and plant pathogenic fungi direct correlation between the ability of fungus to switch between yeast (Y) and hypha (H) forms and pathogenicity have been reported (Jacobsen et al., 2012; Thompson et al., 2011; Nadal et al., 2008).

Which Y-H transition inhibition does the source give for FRLKFHLKF-NH2 [Seq Id No: 2] here?
The Y-H transition inhibition was 5.88%.
